Data reported in patent publication US4390613A, “Diffusion transfer photographic system utilizing substituted phenylmercaptoazoles” (Polaroid Corporation, priority 1981, dated 1983).

Columns and labels:
[1] = Sensitometry of diffusion transfer film units (Example VI); parameters: key to Rel. Speed B (symbol): *: blue relative speed too slow to measure; conditions: room temperature
[2] = Sensitometry of diffusion transfer film units, compound in photosensitive element (Example VII)
[3] = Sensitometry of diffusion transfer film units with blocked compounds (Example XV); conditions: about 215 mgs./m.^2 in top coat layer
[4] = 0.05% in processing composition

With `Oc1ccc(-n2nnnc2S)cc1` [Compound I, 1-(4-hydroxyphenyl)-5-mercaptotetrazole] the “Dmax B” value [1, 4] was 1.98, the “Dmax G” value [1, 4] was 2.24 and the “Dmax R” value [1, 4] was 1.75. The “Dmin B” value [1, 4] was 0.18, the “Dmin G” value [1, 4] was 0.20 and the “Dmin R” value [1, 4] was 0.22. The “Rel. Speed B” value [1, 4] was 1.44, the “Rel. Speed G” value [1, 4] was 1.38 and the “Rel. Speed R” value [1, 4] was 1.39. For the same compound, the “blue Dmax vs control” value ([1]; 0.05%) was “increase in the blue Dmax” and the “blue Dmin vs control” value ([1]; 0.05%) was “without any increase in the blue Dmin”.

For `CC(=NO)c1ccc(-n2nnnc2S)cc1` [Compound II], the “Dmax B” value [1, 4] was 2.06, the “Dmax G” value [1, 4] was 2.27 and the “Dmax R” value [1, 4] was 1.81. The “Dmin B” value [1, 4] was 0.19, the “Dmin G” value [1, 4] was 0.22 and the “Dmin R” value [1, 4] was 0.23. The “Rel. Speed B” value [1, 4] was 1.27, the “Rel. Speed G” value [1, 4] was 1.33 and the “Rel. Speed R” value [1, 4] was 1.34. For the same compound, the “blue Dmax vs control” value ([1]; 0.05%) was “increase in the blue Dmax”, the “blue Dmin vs control” value ([1]; 0.05%) was “without any increase in the blue Dmin” and the “Dmax B” value ([2]; 1 mg/m^2 in layer 5, 75° F.) was 2.25. For the same compound, the “Dmax G” value ([2]; 1 mg/m^2 in layer 5, 75° F.) was 1.75, the “Dmax R” value ([2]; 1 mg/m^2 in layer 5, 75° F.) was 2.03 and the “Rel. Speed B” value ([2]; 1 mg/m^2 in layer 5, 75° F.) was 1.33. For the same compound, the “Rel. Speed G” value ([2]; 1 mg/m^2 in layer 5, 75° F.) was 1.46, the “Rel. Speed R” value ([2]; 1 mg/m^2 in layer 5, 75° F.) was 1.52 and the “Δ Dmax B” value ([2]; 1 mg/m^2 in layer 5, 95° F.) was -0.15. The “Δ Dmax G” value ([2]; 1 mg/m^2 in layer 5, 95° F.) was -0.19, the “Δ Dmax R” value ([2]; 1 mg/m^2 in layer 5, 95° F.) was -0.48 and the “Dmax B” value ([2]; 2 mgs/m^2 in layer 5, 75° F.) was 2.24. For the same compound, the “Dmax G” value ([2]; 2 mgs/m^2 in layer 5, 75° F.) was 1.70, the “Dmax R” value ([2]; 2 mgs/m^2 in layer 5, 75° F.) was 2.09 and the “Rel. Speed B” value ([2]; 2 mgs/m^2 in layer 5, 75° F.) was 1.33. For the same compound, the “Rel. Speed G” value ([2]; 2 mgs/m^2 in layer 5, 75° F.) was 1.46, the “Rel. Speed R” value ([2]; 2 mgs/m^2 in layer 5, 75° F.) was 1.47 and the “Δ Dmax B” value ([2]; 2 mgs/m^2 in layer 5, 95° F.) was -0.11. The “Δ Dmax G” value ([2]; 2 mgs/m^2 in layer 5, 95° F.) was -0.09, the “Δ Dmax R” value ([2]; 2 mgs/m^2 in layer 5, 95° F.) was -0.27 and the “Dmax B” value ([2]; 3 mgs/m^2 in layer 5, 75° F.) was 2.28. The “Dmax G” value ([2]; 3 mgs/m^2 in layer 5, 75° F.) was 1.78, the “Dmax R” value ([2]; 3 mgs/m^2 in layer 5, 75° F.) was 2.14 and the “Rel. Speed B” value ([2]; 3 mgs/m^2 in layer 5, 75° F.) was 1.29. For the same compound, the “Rel. Speed G” value ([2]; 3 mgs/m^2 in layer 5, 75° F.) was 1.39, the “Rel. Speed R” value ([2]; 3 mgs/m^2 in layer 5, 75° F.) was 1.41 and the “Δ Dmax B” value ([2]; 3 mgs/m^2 in layer 5, 95° F.) was -0.11. The “Δ Dmax G” value ([2]; 3 mgs/m^2 in layer 5, 95° F.) was -0.06 and the “Δ Dmax R” value ([2]; 3 mgs/m^2 in layer 5, 95° F.) was -0.22.

For `Sc1nnnn1-c1ccccc1` [PMT, 1-phenyl-5-mercaptotetrazole, reference compound], the “Dmax B” value [1, 4] was 2.20, the “Dmax G” value [1, 4] was 2.23 and the “Dmax R” value [1, 4] was 1.75. For the same compound, the “Dmin B” value [1, 4] was 0.76, the “Dmin G” value [1, 4] was 0.25 and the “Dmin R” value [1, 4] was 0.23. The “Rel. Speed B (symbol)” value [1, 4] was “*”, the “Rel. Speed G” value [1, 4] was 1.03 and the “Rel. Speed R” value [1, 4] was 1.29. The “blue Dmin vs control” value ([1]; 0.05%) was “large increase in the blue Dmin”, the “blue speed vs control” value ([1]; 0.05%) was “very large decrease in the blue speed” and the “restraint of development of blue sensitive emulsion” value ([1]; 0.05%) was “restrained development of the blue sensitive silver halide emulsion prematurely”.

With `CS(=O)(=O)CCSc1nnnn1-c1ccc(S(N)(=O)=O)cc1` [XIII] the “Dmin B” value ([3]; 24° C.) was 0.23, the “Dmin G” value ([3]; 24° C.) was 0.16 and the “Dmin R” value ([3]; 24° C.) was 0.15. For the same compound, the “Dmin B” value ([3]; 35° C.) was 0.25, the “Dmin G” value ([3]; 35° C.) was 0.17 and the “Dmin R” value ([3]; 35° C.) was 0.16.

In the case of `CS(=O)(=O)CCSc1nnnn1-c1ccc(O)cc1` [XII], the “Dmax B” value ([3]; 24° C.) is reported as 1.40, the “Dmax R” value ([3]; 24° C.) is reported as 1.60 and the “Dmin B” value ([3]; 24° C.) is reported as 0.24. For the same compound, the “Dmin G” value ([3]; 24° C.) was 0.17, the “Dmin R” value ([3]; 24° C.) was 0.18 and the “Dmin B” value ([3]; 35° C.) was 0.24. For the same compound, the “Dmin G” value ([3]; 35° C.) was 0.17 and the “Dmin R” value ([3]; 35° C.) was 0.16.

For `CC(=O)CCSc1nnnn1-c1ccc(O)cc1` [XIV], the “Dmin B” value ([3]; 24° C.) was 0.26, the “Dmin G” value ([3]; 24° C.) was 0.17 and the “Dmin R” value ([3]; 24° C.) was 0.16. For the same compound, the “Dmin B” value ([3]; 35° C.) was 0.26, the “Dmin G” value ([3]; 35° C.) was 0.17 and the “Dmin R” value ([3]; 35° C.) was 0.16.

For `CC(=O)c1ccc(-n2nnnc2S)cc1` [XI], the “Dmax B” value ([2]; 1 mg/m^2 in layer 5, 75° F.) was 2.23, the “Dmax G” value ([2]; 1 mg/m^2 in layer 5, 75° F.) was 1.71 and the “Dmax R” value ([2]; 1 mg/m^2 in layer 5, 75° F.) was 2.01. For the same compound, the “Rel. Speed B” value ([2]; 1 mg/m^2 in layer 5, 75° F.) was 1.35, the “Rel. Speed G” value ([2]; 1 mg/m^2 in layer 5, 75° F.) was 1.48 and the “Rel. Speed R” value ([2]; 1 mg/m^2 in layer 5, 75° F.) was 1.56. The “Δ Dmax B” value ([2]; 1 mg/m^2 in layer 5, 95° F.) was -0.14, the “Δ Dmax G” value ([2]; 1 mg/m^2 in layer 5, 95° F.) was -0.12 and the “Δ Dmax R” value ([2]; 1 mg/m^2 in layer 5, 95° F.) was -0.37. The “Dmax B” value ([2]; 2 mgs/m^2 in layer 5, 75° F.) was 2.25, the “Dmax G” value ([2]; 2 mgs/m^2 in layer 5, 75° F.) was 1.73 and the “Dmax R” value ([2]; 2 mgs/m^2 in layer 5, 75° F.) was 2.04. The “Rel. Speed B” value ([2]; 2 mgs/m^2 in layer 5, 75° F.) was 1.37, the “Rel. Speed G” value ([2]; 2 mgs/m^2 in layer 5, 75° F.) was 1.46 and the “Rel. Speed R” value ([2]; 2 mgs/m^2 in layer 5, 75° F.) was 1.58. For the same compound, the “Δ Dmax B” value ([2]; 2 mgs/m^2 in layer 5, 95° F.) was -0.11, the “Δ Dmax G” value ([2]; 2 mgs/m^2 in layer 5, 95° F.) was -0.05 and the “Δ Dmax R” value ([2]; 2 mgs/m^2 in layer 5, 95° F.) was -0.27. The “Dmax B” value ([2]; 3 mgs/m^2 in layer 5, 75° F.) was 2.23, the “Dmax G” value ([2]; 3 mgs/m^2 in layer 5, 75° F.) was 1.71 and the “Dmax R” value ([2]; 3 mgs/m^2 in layer 5, 75° F.) was 2.08. For the same compound, the “Rel. Speed B” value ([2]; 3 mgs/m^2 in layer 5, 75° F.) was 1.39, the “Rel. Speed G” value ([2]; 3 mgs/m^2 in layer 5, 75° F.) was 1.43 and the “Rel. Speed R” value ([2]; 3 mgs/m^2 in layer 5, 75° F.) was 1.57. For the same compound, the “Δ Dmax B” value ([2]; 3 mgs/m^2 in layer 5, 95° F.) was -0.05, the “Δ Dmax G” value ([2]; 3 mgs/m^2 in layer 5, 95° F.) was “+0.06” and the “Δ Dmax R” value ([2]; 3 mgs/m^2 in layer 5, 95° F.) was -0.19.

In the case of `CC(=O)Oc1ccc(CSc2nnnn2-c2ccc(O)cc2)cc1` [XVIII], the “Dmin B” value ([3]; 24° C.) is reported as 0.23, the “Dmin G” value ([3]; 24° C.) is reported as 0.15 and the “Dmin R” value ([3]; 24° C.) is reported as 0.14. The “Dmin B” value ([3]; 35° C.) was 0.25, the “Dmin G” value ([3]; 35° C.) was 0.15 and the “Dmin R” value ([3]; 35° C.) was 0.14.

For `CC(=NO)c1ccc(-n2nnnc2SCCC#N)cc1` [XVII], the “Dmin B” value ([3]; 24° C.) was 0.15, the “Dmin G” value ([3]; 24° C.) was 0.13 and the “Dmin R” value ([3]; 24° C.) was 0.16. The “Dmax R” value ([3]; 35° C.) was 1.40, the “Dmin B” value ([3]; 35° C.) was 0.17 and the “Dmin G” value ([3]; 35° C.) was 0.14. The “Dmin R” value ([3]; 35° C.) was 0.16.

For `N#CCCSc1nnnn1-c1ccc(O)cc1` [XVI], the “Dmax R” value ([3]; 24° C.) was 1.30, the “Dmin B” value ([3]; 24° C.) was 0.15 and the “Dmin G” value ([3]; 24° C.) was 0.13. The “Dmin R” value ([3]; 24° C.) was 0.15, the “Dmin B” value ([3]; 35° C.) was 0.17 and the “Dmin G” value ([3]; 35° C.) was 0.14. The “Dmin R” value ([3]; 35° C.) was 0.17.

For `CC(=O)CCSc1nnnn1-c1ccc(S(N)(=O)=O)cc1` [XV], the “Dmin B” value ([3]; 24° C.) was 0.16, the “Dmin G” value ([3]; 24° C.) was 0.13 and the “Dmin R” value ([3]; 24° C.) was 0.16. For the same compound, the “Dmin B” value ([3]; 35° C.) was 0.17, the “Dmin G” value ([3]; 35° C.) was 0.14 and the “Dmin R” value ([3]; 35° C.) was 0.16.
